Some of these results come from one statement about several compounds together.
Assay: Observation of adverse effects and recovery after intrathecal injection
Assay type: in vivo, rat
Conditions: intrathecal injection of 2 microliters, rats
Description: These rats were then allowed time to recover from their intrathecal injection. There were no apparent adverse effects such as respiratory depression, cardiac, or neurological compromise. At 30 minutes after the injection, the rats were tested again, according to grouping:
This study also shed some light into the safety of intrathecally delivering active agent gases.

Row | SMILES | time to full recovery from the intrathecal injection (return to thermal latency baseline) [min]
1 | FC(F)OC(Cl)C(F)(F)F (centres unmarked) [isoflurane, 1-chloro-2,2,2-trifluoroethyl difluoromethyl ether] | ≤ 30
2 | FCOC(C(F)(F)F)C(F)(F)F [sevoflurane] | ≤ 30

Reference: patent US10357464B2, “Methods for delivering volatile anesthetics for regional anesthesia and/or pain relief” (The Board of Regents of the University of Texas System, priority 2006, dated 2019)
